PubChem BioAssay AID1224828 | NIAID | 2016
The whole screen tested about 17,000 reagents; this is a part drawn at random. 762 of all reagents (4.5%) count as active. 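Active calls include both raised and lowered p65 entry, mostly lowered; wells with fewer than 50 cells lack a z-score.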 Raw values are not corrected between plates. Entries without a mark were called inactive.

Purpose: 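Knock-downs that increase or decrease LPS-induced p65 nuclear translocation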 (primary screen)
System: mouse RAW264.7 G9 macrophage reporter cells (GFP-p65, Tnf promoter-mCherry)
Reagent: siRNA pool against mouse genes, 100 nM
Timing: 2 days siRNA transfection, then 40 min LPS before fixation
Treatment: LPS (Salmonella minnesota R595) at 10 ng/ml
Read-out: 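Imaged p65 nuclear translocation ratio, normalised to the plate median, converted to robust z-scores and averaged across two replicates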
Reading the numbers: p65 translocation robust z-score: higher = more nuclear NF-kappaB p65 after LPS than the plate median; nuclear/cytoplasmic p65 ratio: higher = more nuclear NF-kappaB p65
Hit rule: 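Called active when z exceeds 3.3 or falls under -1.56 (median of Tlr4 controls), giving activity score of at least 50; no calls for control wells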
Meaning of the calls: active = hit (p65 shift raised or lowered); inactive = no clear change

The opening 2 records, to show the layout:
Mcptl (GeneID 17233): p65 translocation robust z-score = -0.45; nuclear/cytoplasmic p65 ratio, rep 1 = 1.67; nuclear/cytoplasmic p65 ratio, rep 2 = 1.46; low cell count flag = enough cells to score
Jak3 (GeneID 16453): p65 translocation robust z-score = 0.02; nuclear/cytoplasmic p65 ratio, rep 1 = 1.72; nuclear/cytoplasmic p65 ratio, rep 2 = 1.36; low cell count flag = enough cells to score

The list itself, repeating the preview:
Mcptl (GeneID 17233): p65 translocation robust z-score = -0.45; nuclear/cytoplasmic p65 ratio, rep 1 = 1.67; nuclear/cytoplasmic p65 ratio, rep 2 = 1.46; low cell count flag = enough cells to score
Jak3 (GeneID 16453): p65 translocation robust z-score = 0.02; nuclear/cytoplasmic p65 ratio, rep 1 = 1.72; nuclear/cytoplasmic p65 ratio, rep 2 = 1.36; low cell count flag = enough cells to score
Spag11a (GeneID 78128): p65 translocation robust z-score = 1.3; nuclear/cytoplasmic p65 ratio, rep 1 = 1.52; nuclear/cytoplasmic p65 ratio, rep 2 = 1.44; low cell count flag = enough cells to score
Slc25a31 (GeneID 73333): nuclear/cytoplasmic p65 ratio, rep 1 = 1.4; nuclear/cytoplasmic p65 ratio, rep 2 = 2.25; low cell count flag = fewer than 50 cells per well; well left out of scoring
Papola (GeneID 18789): p65 translocation robust z-score = -0.7; nuclear/cytoplasmic p65 ratio, rep 1 = 1.31; nuclear/cytoplasmic p65 ratio, rep 2 = 1.2; low cell count flag = enough cells to score
Plce1 (GeneID 74055): p65 translocation robust z-score = 1.11; nuclear/cytoplasmic p65 ratio, rep 1 = 1.53; nuclear/cytoplasmic p65 ratio, rep 2 = 1.33; low cell count flag = enough cells to score
Spred1 (GeneID 114715): p65 translocation robust z-score = -0.2; nuclear/cytoplasmic p65 ratio, rep 1 = 1.3; nuclear/cytoplasmic p65 ratio, rep 2 = 1.28; low cell count flag = enough cells to score
Cyp2a4 (GeneID 13086): p65 translocation robust z-score = -0.96; nuclear/cytoplasmic p65 ratio, rep 1 = 1.4; nuclear/cytoplasmic p65 ratio, rep 2 = 1.2; low cell count flag = enough cells to score
Itga11 (GeneID 319480): p65 translocation robust z-score = 0.74; nuclear/cytoplasmic p65 ratio, rep 1 = 1.49; nuclear/cytoplasmic p65 ratio, rep 2 = 1.56; low cell count flag = enough cells to score
Apoa2 (GeneID 11807): p65 translocation robust z-score = -0.02; nuclear/cytoplasmic p65 ratio, rep 1 = 1.63; nuclear/cytoplasmic p65 ratio, rep 2 = 1.6; low cell count flag = enough cells to score
Efcab8 (GeneID 100504221): p65 translocation robust z-score = 3.4 (active); nuclear/cytoplasmic p65 ratio, rep 1 = 1.48; nuclear/cytoplasmic p65 ratio, rep 2 = 2; low cell count flag = enough cells to score
Cox6b2 (GeneID 333182): p65 translocation robust z-score = -1.6 (active); nuclear/cytoplasmic p65 ratio, rep 1 = 1.34; nuclear/cytoplasmic p65 ratio, rep 2 = 1.53; low cell count flag = enough cells to score
Pfn3 (GeneID 75477): p65 translocation robust z-score = -0.74; nuclear/cytoplasmic p65 ratio, rep 1 = 1.29; nuclear/cytoplasmic p65 ratio, rep 2 = 1.2; low cell count flag = enough cells to score
Eif4ebp2 (GeneID 13688): p65 translocation robust z-score = 0.08; nuclear/cytoplasmic p65 ratio, rep 1 = 1.45; nuclear/cytoplasmic p65 ratio, rep 2 = 1.4; low cell count flag = enough cells to score
Ppp1r1c (GeneID 75276): nuclear/cytoplasmic p65 ratio, rep 1 = 1.39; nuclear/cytoplasmic p65 ratio, rep 2 = 1.34; low cell count flag = fewer than 50 cells per well; well left out of scoring
Or8b48 (GeneID 258806): p65 translocation robust z-score = 0.21; nuclear/cytoplasmic p65 ratio, rep 1 = 1.48; nuclear/cytoplasmic p65 ratio, rep 2 = 1.26; low cell count flag = enough cells to score
Vav2 (GeneID 22325): p65 translocation robust z-score = 0.09; nuclear/cytoplasmic p65 ratio, rep 1 = 1.55; nuclear/cytoplasmic p65 ratio, rep 2 = 1.64; low cell count flag = enough cells to score
Hoxb2 (GeneID 103889): p65 translocation robust z-score = 0.02; nuclear/cytoplasmic p65 ratio, rep 1 = 1.44; nuclear/cytoplasmic p65 ratio, rep 2 = 1.37; low cell count flag = enough cells to score
1810018F18Rik (GeneID 69166): p65 translocation robust z-score = -0.71; nuclear/cytoplasmic p65 ratio, rep 1 = 1.3; nuclear/cytoplasmic p65 ratio, rep 2 = 1.59; low cell count flag = enough cells to score
Ccdc122 (GeneID 108811): nuclear/cytoplasmic p65 ratio, rep 1 = 1.49; nuclear/cytoplasmic p65 ratio, rep 2 = 1.61; low cell count flag = fewer than 50 cells per well; well left out of scoring
Mrpl47 (GeneID 74600): nuclear/cytoplasmic p65 ratio, rep 1 = 1.21; nuclear/cytoplasmic p65 ratio, rep 2 = 1.2; low cell count flag = fewer than 50 cells per well; well left out of scoring
